Results as given in US20230293571A1, “POLYNUCLEOTIDE FOR CANCER TREATMENT, ENCODING 5'-NUCLEOTIDASE MODIFIED PROTEIN” (priority 2020, published 2023).
No constants are given. Whether binding was seen depends on the method and setting. Some entries that bind do so weakly or less than the wild type. Each block holds one binder with its values, some of them ahead of it.

By UniProt entry, the sequences of proteins in these tests, tags left out. Residues count along the entry.
UniProt Q08722, residues 19-139: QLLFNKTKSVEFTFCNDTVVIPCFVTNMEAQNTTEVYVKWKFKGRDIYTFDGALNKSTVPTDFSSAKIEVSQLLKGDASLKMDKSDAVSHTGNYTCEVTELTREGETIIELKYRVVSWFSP

Target: recombinant CD47 protein (Homo sapiens, UniProt Q08722)
Assay: SPR, recombinant CD47 amine-coupled to CM5 chip

- binding: binds
B1: SV4 (designed binder)
chain: MEEELQIIQPDLSVSVAAGESAILHCTITSLFPVGPIQWFRGAGPARVLIYNQRQGPFPRVTTVSETTKRENMDFSISISNITPADAGTYYCIKFRKGSPDTEFLSGAGTELSVRAKPS

B2: SV4-DSPE (protein)
chain: B1 chain
- binding: binds
